Protein sequences can lack the tags named with them.
Molecular target: T1, Hel308Mbu-E284C/S615C-STrEP(C) (Methanococcoides burtonii) (UniProt Q12WZ6)
T1 sequence: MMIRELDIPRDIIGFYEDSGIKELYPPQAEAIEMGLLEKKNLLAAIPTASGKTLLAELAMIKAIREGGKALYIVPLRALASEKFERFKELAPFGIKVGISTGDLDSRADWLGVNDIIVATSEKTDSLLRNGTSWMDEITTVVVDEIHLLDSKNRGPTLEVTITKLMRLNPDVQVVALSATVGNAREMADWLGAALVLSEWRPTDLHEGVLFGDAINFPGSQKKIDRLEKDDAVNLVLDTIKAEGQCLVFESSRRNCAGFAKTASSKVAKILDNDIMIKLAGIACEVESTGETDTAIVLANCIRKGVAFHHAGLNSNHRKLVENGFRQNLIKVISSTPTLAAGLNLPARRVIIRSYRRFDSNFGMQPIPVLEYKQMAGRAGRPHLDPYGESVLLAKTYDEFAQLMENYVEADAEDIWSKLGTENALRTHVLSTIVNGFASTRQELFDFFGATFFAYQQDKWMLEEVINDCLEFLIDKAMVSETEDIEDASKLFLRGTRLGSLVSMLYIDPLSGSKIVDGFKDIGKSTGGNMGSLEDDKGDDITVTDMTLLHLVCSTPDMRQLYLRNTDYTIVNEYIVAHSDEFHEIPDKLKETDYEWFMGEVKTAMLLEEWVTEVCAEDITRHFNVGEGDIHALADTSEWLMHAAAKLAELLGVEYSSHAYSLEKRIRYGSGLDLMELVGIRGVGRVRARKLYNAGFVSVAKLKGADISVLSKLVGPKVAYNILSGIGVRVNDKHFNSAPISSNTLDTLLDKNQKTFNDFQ
Test: activity assay
Settings: helicase loads on 3' overhang and removes MuA from PhiX constructs; 1 uM enzyme, 10 mM ATP, 10 mM MgCl2, room temperature; purified recombinant protein

Sequence: GTTTTCGCATTTATCGTGAAACGCTTTCGCGTTTTTCGTGCGCCGCTTCA / GATCTGAAGCGGCGCACGAAAAACGCGAAAGCGTTTCACGATAAATGCGAAAACTTTTTTTTTT [transposon 2]
- activity on this sequence: active

From US20190194722, “METHOD” (Oxford Nanopore Technologies Ltd., published 2019)
